Test results as given in paper PMC8801414.

Molecular target: T1, GFP-tagged TXNIP full length (F) (UniProt Q9H3M7)
T1 sequence: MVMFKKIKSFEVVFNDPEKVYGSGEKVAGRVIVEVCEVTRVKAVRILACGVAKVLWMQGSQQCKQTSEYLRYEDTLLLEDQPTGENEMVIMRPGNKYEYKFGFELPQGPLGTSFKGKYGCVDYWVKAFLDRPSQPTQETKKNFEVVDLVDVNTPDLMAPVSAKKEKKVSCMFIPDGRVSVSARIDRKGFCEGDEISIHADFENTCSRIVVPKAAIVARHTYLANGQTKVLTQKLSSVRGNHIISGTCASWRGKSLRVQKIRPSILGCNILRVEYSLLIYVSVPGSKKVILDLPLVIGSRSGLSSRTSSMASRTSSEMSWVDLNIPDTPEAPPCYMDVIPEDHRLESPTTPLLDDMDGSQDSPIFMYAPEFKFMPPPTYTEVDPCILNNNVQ
Test: co-IP; HEK293T cells co-transfected with tagged constructs, lysed 24 h later; IP with anti-Myc (NLRP3 constructs) or anti-GFP (TXNIP constructs) antibody, Western blot for HA and the bait's tag

Row | Substance | binding
1 | HA-tagged PARP-1, DNA binding domain deleted (dDBD) (domain or fragment) | binds
2 | HA-tagged PARP-1, catalytic domain deleted (dCD) (domain or fragment) | binds

No constants are given. Whether binding was seen depends on the method and setting. Binding seen in cells or lysates may run through a third protein. A result given as binding can be weak or reduced; the word gives no strength. Where a sequence is shown, tags or fusion partners need not be part of it.
